Experimental data taken from PubChem BioAssay AID504648 (National Center for Advancing Translational Sciences (NCATS), 2011).
Out of some 390,000 compounds screened, about 610 (0.16%) were called active. Inconclusive means that the source gave no clear call. Such entries were picked first, then a sample of the others. The call rests on the fitted dose curve; in most records, active means well fitted inhibition curve with a large enough effect; inconclusive means small, poorly fitted or top-dose-only effect, or effect the other way, or another doubt; inactive means no such curve, though single readings can be large or run the other way. Potencies of inconclusive entries are doubtful fits and often do not repeat.
Potency means the concentration at half of the fitted maximal effect.

Assay: Nrf2 qHTS screen for inhibitors: counterscreen for cytotoxicity
Details: A549 ARE-Fluc cells, CellTiter-Fluor viability, 18-24 h; series mostly up to 46 µM
Procedure, shortened: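 A549 ARE_Fluc cells in 5% FBS OPTI-MEM were exposed to compounds in concentration-response for 18-24 h at 37 deg C. Viability was read by CellTiter-Fluor fluorescence (Ex 405/Em 525) after 30 min, before the luciferase read.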
For Cc1ccccc1NC(=O)/C=C/c1ccc([N+](=O)[O-])s1, the Potency was inconclusive: 29.1 µM [falling, single point].
In the case of c1ccc(CC2CCN(C3=Nc4cccc5cccc3c45)CC2)cc1, the Potency is reported as inconclusive: 18.4 µM [falling, single point].
With Cn1ncc2c(=S)nc(Cl)[nH]c21 the Potency was “inactive”.
In the case of Cc1ccc(C)c(NC(=O)c2ccccc2NS(=O)(=O)c2cc([N+](=O)[O-])ccc2C)c1, the Potency is reported as inconclusive: 7.31 µM [falling, partial curve].
With COc1ccc(NC(=O)CN(C)CC(=O)Nc2cccc(S(=O)(=O)N(C)c3ccccc3)c2)cc1 the Potency was inconclusive: 20.6 µM [falling, single point].
With CCOc1cc(C)nc(NCc2ccccc2)n1 the Potency was “inactive”.
For COc1cc(/C=N/n2cnn(Cc3ccccc3Cl)c2=S)cc(OC)c1OC, the Potency was “inactive”.
With COc1ccc(Cn2c(O)c(C=Nc3ccccc3)c3ccccc3c2=O)cc1 the Potency was inconclusive: 10.3 µM [falling, partial curve, poor fit].
For O=C(Nc1ccc(OC(F)F)c(Cl)c1)C(c1ccccc1)c1ccccc1, the Potency was inconclusive: 20.6 µM [falling, single point].
For NC(=O)c1ccc2nc(-c3ccccc3)c(-c3ccccc3)nc2c1, the Potency was “inactive”.
With CCOC(=O)c1cccc(NC(=O)CSc2nc3ccccc3c(=O)n2CC)c1 the Potency was “inactive”.
For O=C(/C=C/c1ccc(O)cc1)c1ccc(NC2=C(N3CCCCC3)C(=O)c3ccccc3C2=O)cc1, the Potency was inconclusive: 23.1 µM [falling, single point].
In the case of O=C(NCCc1ccccc1)c1ccc2c(c1)N(Cc1ccc(Cl)cc1)C(=O)c1ccccc1S2(=O)=O, the Potency is reported as inconclusive: 23.1 µM [activator, partial curve, poor fit].
With COc1cc(OC)c2c(C)cc(=O)oc2c1C(CCN1CCOCC1)c1ccc(N(C)C)cc1 (stereo not given) the Potency was inconclusive: 9.2 µM [falling, partial curve, poor fit].
With COc1ccc(CNC(=O)c2ccc(CN3C(=O)C(C)=C(c4ccc(C)cc4)S3(=O)=O)cc2)cc1 the Potency was “inactive”.
In the case of CN(C)C(=S)NC(=S)Nc1ccc2ccccc2c1, the Potency is reported as “inactive”.
In the case of COc1cc(NC(=O)Cn2nc(-c3ccc(F)cc3)ccc2=O)ccc1-n1cnnn1, the Potency is reported as inconclusive: 25.9 µM [falling, single point].
In the case of CC(C)n1c(N2CCN(C(=O)Nc3ccccc3)CC2)nc2ccccc21, the Potency is reported as inconclusive: 23.1 µM [falling, partial curve, poor fit].
With COc1ccc(-n2c(COc3cccc4ccccc34)nnc2SCC(=O)NCc2ccco2)cc1 the Potency was inconclusive: 23.1 µM [falling, single point].
For CCc1ccc(/C=N/NC(=O)c2cc(C3CC3)nc3ccccc23)s1, the Potency was inconclusive: 9.2 µM [falling, partial curve].
For CCOc1cc(CNCCc2ccc(S(N)(=O)=O)cc2)ccc1OCc1ccccc1, the Potency was inconclusive: 23.1 µM [falling, partial curve, poor fit].
In the case of CC1CCN(S(=O)(=O)c2ccc3nc(NCc4ccc(N(C)C)cc4)ccc3c2)CC1, the Potency is reported as inconclusive: 32.6 µM [falling, partial curve, poor fit].
With Cc1ccc(NC(=O)CN2C(=O)C(c3ccc(F)cc3)=NC23CCCCCC3)c(C)c1 the Potency was inconclusive: 11.6 µM [falling, partial curve, poor fit].
In the case of Cc1cccc(S(=O)(=O)Nc2cccc3c2C(=O)c2ccccc2-3)c1, the Potency is reported as “inactive”.
With Cc1ccn2cc(-c3cnoc3C)nc2c1 the Potency was “inactive”.
For O=C(COc1ccccc1Cl)NCCCNC(=O)c1cccnc1, the Potency was “inactive”.
With Cn1c(-c2c(N)n(CCCc3ccccc3)c3nc4ccccc4nc23)nc2ccccc21 the Potency was inconclusive: 29.1 µM [falling, partial curve, poor fit].
With O=C(NCc1ccco1)c1sc2cc(F)ccc2c1Cl the Potency was inconclusive: 2.59 µM [activator, partial curve, poor fit].
In the case of O=[N+]([O-])c1ccc(N2CCN(C(=S)Nc3ccc(F)cc3)CC2)cc1, the Potency is reported as “inactive”.
In the case of C(=N\n1cnnc1)/c1ccc(OCc2ccccc2)cc1, the Potency is reported as “inactive”.
In the case of Cc1ccc(-n2nc(C)c(NC(=O)CCl)c2C)cc1C, the Potency is reported as inconclusive: 8.2 µM [falling, partial curve, poor fit].
For COc1cccc(OCC(O)CN2CCC(CN3C(=O)c4cccc5cccc(c45)C3=O)CC2)c1 (stereo not given), the Potency was inconclusive: 20.6 µM [falling, single point].
With COC(=O)c1ccc(CSc2nc3c(cnn3-c3ccc(C)cc3)c(=O)[nH]2)o1 the Potency was “inactive”.
In the case of CCCCN1C2=NCCCN2c2cc(C)c(C)cc21, the Potency is reported as inconclusive: 23.1 µM [falling, partial curve, poor fit].
With CCOC(=O)Cc1cc(=O)n2[nH]c(C)c(-c3ccccc3)c2n1 the Potency was inconclusive: 18.4 µM [falling, partial curve, poor fit].
For CC(C)Cn1c(=O)c(C(=O)NCc2ccccn2)c(O)c2ccccc21, the Potency was inconclusive: 29.1 µM [falling, partial curve, poor fit].
For O=C(c1ccc2c(c1)N(Cc1ccccc1)C(=O)c1ccccc1S2(=O)=O)N1CCCCCC1, the Potency was inconclusive: 23.1 µM [falling, single point].
With CCNC(=O)Nn1c(-c2ccccc2)nc2ccccc2c1=O the Potency was inconclusive: 32.6 µM [falling, partial curve, poor fit].
For CCc1ccccc1NC(=O)c1cc(-c2ccco2)on1, the Potency was inconclusive: 20.6 µM [activator, partial curve, poor fit].
For CCN(CC)CCN(C(=O)c1ccco1)c1nc2ccc(Br)cc2s1, the Potency was inconclusive: 29.1 µM [activator, partial curve, poor fit].
For C=CCN(Cc1ccc(OC)c(OC)c1)C(=O)c1cc2cc(F)ccc2[nH]1, the Potency was inconclusive: 32.6 µM [falling, partial curve, poor fit].
With ClC(Cl)c1nnc(-c2ccccc2)c(-c2c[nH]c3ccccc23)n1 the Potency was inconclusive: 8.2 µM [falling, partial curve].
In the case of O=[N+]([O-])c1cc(C(F)(F)F)cc([N+](=O)[O-])c1NCCCNc1ccc([N+](=O)[O-])c2cccnc12, the Potency is reported as inconclusive: 16.4 µM [falling, partial curve, poor fit].
In the case of CCOC(=O)c1[nH]c2ccc(Br)cc2c1NC(=O)CCN1CCCC(C)(C)C1, the Potency is reported as inconclusive: 29.1 µM [falling, single point].
With COc1ccc(-c2c3c(nc4sc5c(=O)[nH]c(C)nc5c24)CCC3)cc1 the Potency was “inactive”.
With COc1ccc(F)cc1S(=O)(=O)Nc1cccc(-c2ccc(N3CCCCCC3)nn2)c1 the Potency was inconclusive: 29.1 µM [falling, single point].
In the case of CC(=O)/C=C/n1c(=S)oc2ccccc21, the Potency is reported as inconclusive: 20.6 µM [falling, single point].
With COc1ccccc1CN1C[C@@H]2C[C@@H](C3=Cc4cc(Cl)ccc4OC3)N3CCC[C@@]23C1=O the Potency was inconclusive: 18.4 µM [falling, single point].
With Cc1ccc(C(=O)N/C(=C\c2ccc(-c3ccc(Br)cc3)o2)C(=O)NCCCN(C)C)cc1 the Potency was inconclusive: 29.1 µM [falling, single point].
In the case of CCOC(=O)Nc1cccc(OCC(=O)Nc2ccc(OC)cc2OC)c1, the Potency is reported as inconclusive: 29.1 µM [falling, single point].
For N=C1S/C(=C\c2ccc(-c3cccc(Cl)c3)o2)C(=O)N1c1nccs1, the Potency was inconclusive: 16.4 µM [falling, partial curve].
For CSCCC(NS(=O)(=O)c1ccc(Cl)cc1)C(=O)N1CCN(c2ccccc2)CC1 (stereo not given), the Potency was “inactive”.
For COc1ccc(/C=N/NC(=O)COc2ccccc2-c2ccccc2)cc1, the Potency was inconclusive: 5.17 µM [falling, partial curve].
For CCOC(=O)C(/C=C(\C#N)C(=O)OCC)=C(/N)N1CCN(c2ccc(Cl)cc2)CC1, the Potency was inconclusive: 32.6 µM [falling, partial curve, poor fit].
With O=S(=O)(c1ccc(F)cc1)N1CCN(c2nc(-c3cccs3)nc3ccccc23)CC1 the Potency was “inactive”.
With CCC(=O)N(CC)c1nc(-c2ccc(OC)cc2)cs1 the Potency was “inactive”.
For COC(=O)c1ccc(/C=C2/SC(=S)N(CCCC(=O)Nc3ccccn3)C2=O)cc1, the Potency was “inactive”.
In the case of COc1ccc(N2CCN(C(CNC(=O)C(=O)NCCCO)c3ccco3)CC2)cc1 (stereo not given), the Potency is reported as “inactive”.
In the case of O=C(OCCOc1ccccc1)c1cc(S(=O)(=O)N2CCOCC2)ccc1Cl, the Potency is reported as inconclusive: 16.4 µM [activator, partial curve, poor fit].
In the case of CC(=O)Nc1ccc(NC(=O)C/C(C)=N/NC(=O)COc2cc(C)c(Br)cc2Br)cc1, the Potency is reported as “inactive”.
With Cc1cc(/C=C(\C#N)C(=O)Nc2ccccc2)c(C)n1-c1ccc(C(=O)O)cc1 the Potency was inconclusive: 20.6 µM [falling, partial curve, poor fit].
In the case of Cc1ccc(CN(C)C(=O)CSc2nnc3n2CCCCC3)c(C)c1, the Potency is reported as “inactive”.
In the case of Cn1nc(C(F)(F)F)c(/C=N/OC(=O)c2ccccc2Cl)c1SCc1ccccc1Cl, the Potency is reported as inconclusive: 23.1 µM [falling, single point].
With CN1CCN(c2ccc([N+](=O)[O-])c(-n3nc(-c4ccccc4)c4ccccc4c3=O)c2)CC1 the Potency was inconclusive: 29.1 µM [falling, single point].
With O=C(c1ccc(OC2CCN(C/C=C/c3ccc(F)cc3)CC2)cc1)N1CCCCC1 the Potency was inconclusive: 25.9 µM [falling, partial curve, poor fit].
